The source of these data is PubChem BioAssay AID2685 (National Center for Advancing Translational Sciences (NCATS), 2010).

The list shows a part of the results. The main result of the screen is listed elsewhere. These columns were measured beside it and carry no call. Compounds called inactive in the main read-out are mostly missing here. Words in brackets tell the shape of the fitted curve; partial curves, single points and poor fits give uncertain potencies.

The assay in a line: qHTS Assay for Lipid Storage Modulators in Drosophila S3 Cells.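 On cell number change: cells counted by Cell Tracker Red CMTPX staining in the red channel.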 The conditions noted are these: BODIPY lipid droplet fluorescence, 18-24 h; for cell number change: measured here: cell count max response, cells fed with added oleic acid. The method, boiled down: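 Drosophila S3 cells got compounds at several concentrations plus oleic acid (400 uM solution). Laser-scanning cytometry with 488 nm excitation read lipid droplets at 500-530 nm and cells at 575-640 nm. Percent activity was relative to 20 uM Triacsin C.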

[1] abbreviates: measured here: lipid fluorescence (Fed channel) AC50, cells fed with added oleic acid.
The mark [2] stands for this setting: measured here: cell number channel AC50, cells fed with added oleic acid.

Consider `COc1ccc(-n2nc3c(c2NC(=O)C2CC2)CS(=O)C3)cc1` (stereo not drawn), for which the cell number change was determined as 1.29%. Further, the AC50 (in general, the concentration at which the activity in the assay is half-maximal) under setting [1] was 29.1 µM [falling, single point].
Turning to `CCC(C(=O)NCCCN(CC)Cc1ccccc1)n1nc(C)c2sc3ccccc3c2c1=O` (stereo not drawn), the cell number change is 46.8%. Moreover, the AC50 under setting [2] was 0.731 µM [rising, partial curve, poor fit]. Also, the concentration at half-maximal activity (AC50) under setting [1] is 6.51 µM [rising, single point].
As to `O=C(c1cc(-c2ccc3c(c2)OCO3)on1)N1CCCCC1`, the cell number change came out at 24.2%. The AC50 under setting [1] was 1.16 µM [rising, single point].
For the molecule `COc1ccccc1OC(C)C(=O)N1CCN(Cc2ccc3c(c2)OCO3)CC1` (stereo not drawn), the cell number change was found to be 4.7%. The AC50 under setting [1] was 20.6 µM [rising, partial curve].
Regarding `CCOC(=O)C(=N/O)/C(C)=N/NC(=O)C(=O)Nc1cc(Cl)ccc1Cl`, the cell number change was -22.5%.
`N#CC(CC(=O)c1ccc(F)cc1)c1ccc2c(c1)OCO2` (stereo not drawn): the cell number change is 16.3%. Besides, under setting [1], the AC50 was 0.0651 µM [falling, full curve, poor fit].
Turning to `Cc1ccc(S(=O)(=O)Nc2ccc(S(=O)(=O)NC(C)(C)C)cc2)cc1`, the cell number change came to 6.42%. Moreover, the AC50 under setting [1] is 6.51 µM [rising, single point].
With `COc1ccc(/C=C(/NC(=O)c2ccc([N+](=O)[O-])cc2)C(=O)NCCCN(C)C)cc1`, the cell number change was found to be 14.6%. Further, under setting [1], the AC50 is 23.1 µM [rising, single point].
Take `COc1ccc(N2CC(C(=O)Nc3ccc(N4CCOCC4)cc3)CC2=O)cc1` (stereo not drawn): the cell number change amounted to 32.7%. The AC50 under setting [2] is 5.8 µM [rising, full curve, poor fit].
Consider `CCO/C(C)=C1\C(=O)N(CC)c2ccccc21`, for which the cell number change was -5.59%.
For the molecule `Cc1cc(C)n2nc(SC(C)C(=O)NC3CCCCC3C)nc2n1` (stereo not drawn), the cell number change was -13%. Moreover, under setting [1], the AC50 was 20.6 µM [falling, single point].
Consider `S=C(NCC1COc2ccccc2O1)Nc1ccc(Br)cc1` (stereo not drawn), for which the cell number change is -32%. Besides, the AC50 under setting [2] is 29.1 µM [falling, single point]. Moreover, under setting [1], the AC50 was 23.1 µM [falling, partial curve].
In the case of `CCCNC(=O)c1ccccc1C(=O)NC1(C(=O)NCCC)CCCC1`, the cell number change was -21.9%.
For the molecule `O=C1OC(Nc2ccc3ncccc3c2)c2ccccc21` (stereo not drawn), under setting [1], the AC50 was 6.51 µM [rising, single point].
Take `Cc1cccc(N2C(=O)CC(Sc3nnc(C)s3)C2=O)c1` (stereo not drawn): the cell number change was -71%. For the same molecule, the AC50 under setting [2] was 29.1 µM [falling, single point]. In addition, the AC50 under setting [1] is 29.1 µM [falling, single point].
Take `CC/C(=N\OC(=O)c1ccc(OC(C)C)cc1)c1ccc(C)cc1`: the cell number change was -74%. The AC50 under setting [2] is 29.1 µM [falling, single point].
Turning to `CCN1C(=O)/C(=C/C=C2\N(CC)c3cc(S(=O)(=O)N(C)C)ccc3N2c2ccccc2)SC1=S`, the cell number change is -89.2%. Further, the AC50 under setting [2] was 10.3 µM [falling, partial curve]. The AC50 under setting [1] is 0.517 µM [falling, full curve].
For `C[C@H](N)c1nnc(SCC(=O)c2ccc(Cl)cc2)o1`, the cell number change worked out at 9.91%. For the same molecule, the AC50 under setting [1] was 18.4 µM [falling, partial curve].
Turning to `O=C(Cc1ccc(Cl)cc1)Nc1cc(S(=O)(=O)N2CCOCC2)ccc1N1CCCC1`, the cell number change is -1.64%. Also, the AC50 under setting [1] is 0.731 µM [rising, single point].
`CC1CC(C)CN(C(=O)COC(=O)/C=C/c2cccc([N+](=O)[O-])c2)C1` (stereo not drawn): the cell number change is -3.21%.
Take `CC(=O)C1=C(c2ccccc2)OC(N)=C(C#N)C1c1ccc(O)cc1` (stereo not drawn): the cell number change is -1.6%. Besides, under setting [1], the AC50 is 0.058 µM [rising, full curve, poor fit].
Take `CCc1ccc(CN2CCN(c3ncccn3)CC2)cc1`: the cell number change turned out to be 1.82%.
For the molecule `CN1/C(=C/C(=O)c2nc(S(C)(=O)=O)ncc2Cl)C(C)(C)c2ccccc21`, the cell number change was -88.4%. The AC50 under setting [2] is 14.6 µM [falling, partial curve]. Further, the AC50 under setting [1] is 29.1 µM [falling, partial curve].
As for `Cc1nnc(SCCn2c(N3CCCC(C)C3)nc3c2c(=O)n(C)c(=O)n3C)s1` (stereo not drawn), the cell number change is 14.3%.
With `COc1ccc(C2c3ccc4ccccc4c3Oc3ncn(CCN4CCOCC4)c(=N)c32)cc1OC` (stereo not drawn), the cell number change is -23.8%. Besides, under setting [1], the AC50 is 0.411 µM [falling, single point].
With `COc1ccc(CNC(=O)C2CC(c3ccc(F)cc3)=NO2)cc1` (stereo not drawn), the cell number change came out at 0.959%. In addition, under setting [2], the AC50 was 1.3 µM [falling, full curve]. For the same molecule, the concentration at half-maximal activity (AC50) under setting [1] was 6.51 µM [falling, partial curve, poor fit].
As to `COc1cc(OC)c(NC(=O)CN(C)S(=O)(=O)c2ccc3[nH]c(=O)oc3c2)cc1Cl`, the cell number change is -3.54%.
`CSCCC(NC(=O)c1ccccc1)C(=O)N1CC(C)OC(C)C1` (stereo not drawn): the cell number change was determined as 20.5%. Moreover, under setting [1], the AC50 was 20.6 µM [rising, single point].
For `N#Cc1cn(-c2ccccc2)nc1-c1ccco1`, the cell number change is -18.3%.
For `COC(=O)c1c(C(=O)OC)c(-c2cccc(C)c2)n2c1CS(=O)(=O)C2`, the AC50 under setting [2] was 1.3 µM [rising, full curve] and the AC50 under setting [1] is 1.84 µM [rising, partial curve].
On to `O=C(O)C1(c2ccccc2)CCC(Nc2ccccc2)C1` (stereo not drawn), for which the cell number change stood at 28.4%.
Take `COc1ccc2cc(-c3cc(C(=O)OCC(=O)NC4CCS(=O)(=O)C4)c4ccccc4n3)ccc2c1` (stereo not drawn): the cell number change was -61.8%. Moreover, the AC50 under setting [2] was 16.4 µM [falling, partial curve].
As to `CCOC(=O)c1c(C)[nH]c(C)c1C(=O)CSc1ncccn1`, the AC50 under setting [1] is 0.517 µM [rising, full curve].
`CSc1ncccc1C(=O)OCc1ccccc1Cl`: the cell number change amounted to 16.4%.
Regarding `COc1cccc(NC(=O)C2CC2(c2cccc(OC)c2)c2cccc(OC)c2)c1` (stereo not drawn), the cell number change was -5.97%. Under setting [1], the AC50 is 29.1 µM [falling, single point].
As to `CCOC(=O)c1oc2ccc(Br)cc2c1COC(=O)C1=COCCO1`, the cell number change was found to be 97.5%. In addition, the AC50 under setting [2] was 5.8 µM [rising, partial curve].
Regarding `O=C1C=C(c2ccc(F)cc2OCc2ccccc2)C[C@@H](c2ccc3c(c2)OCO3)C1`, the cell number change was -2.29%. The AC50 under setting [1] is 0.82 µM [rising, full curve, poor fit].
As to `CC(C)CN1C(=O)c2ccc(NC(=O)c3ccccc3F)cc2C1=O`, the cell number change turned out to be 13.8%. In addition, the AC50 under setting [1] was 2.59 µM [rising, partial curve].
Consider `CCOC(=O)C(NC(C)=O)(NS(=O)(=O)c1ccccc1)C(F)(F)F` (stereo not drawn), for which the AC50 under setting [2] is 0.461 µM [falling, single point].
On to `CC(=O)c1c(N2CCOCC2)nc2ccc(Br)cc2c1-c1ccccc1`, for which the cell number change came to 47.6%. Also, under setting [1], the AC50 is 29.1 µM [rising, single point].
